Among the data in the supplement of paper PMC3682954 are cell viability values, retold here.

This assay concerns RAW 264.7. The assay is described as follows: cell viability (MTT) relative to vehicle control; higher = more viable cells. The following applies: stimulus: HMGB1 5 ug/ml, 18 h.
Where [1] appears, read: compound concentration: 1 ug/ml.

Several values for one entry are separate records, joined by “and”; a condition that tells them apart may be missing. Equal values may be shown once. Where a name gives a salt, the structure may show the parent alone. ± gives the standard deviation of the averaged measurements. This is one part of the list. Many values rest on one well or one pass, so single values are uncertain.

`O=C(N/N=C/c1ccc([N+](=O)[O-])o1)c1ccc(O)cc1`: for the setting “compound concentration: 3 uM”, the cell viability (as a rule, a read-out of living cells in per cent, often relative to untreated cells) stood at 100%. On to `O=C(N/N=C/c1ccc([N+](=O)[O-])o1)c1ccc(O)cc1` [Nifuroxazide], for which, for the setting “compound concentration: 3 uM”, the cell viability came to 78%. The same measure, in the same setting: the same measure for `Nc1ncnc2c1ncn2[C@@H]1O[C@H](COP(=O)(O)CP(=O)(O)OP(=O)(O)O)[C@H](O)C1O` (stereo partly drawn) [alpha,beta-Methylene adenosine 5'-triphosphate dilithium]: 103%; for `CN1CCN(C(c2ccccc2)c2ccc(Cl)cc2)CC1` (configuration not stated) [Chlorcyclizine hydrochloride]: 107%; for `CN1CCN(C(c2ccccc2)c2ccc(Cl)cc2)CC1` (configuration not stated): 112%. With `CN(N=O)C(=O)N[C@@H](C=O)[C@@H](O)[C@H](O)[C@H](O)CO` [Streptozotocin], the cell viability (compound concentration: 3 uM) is 132%. With `Cn1cc(C2=C(c3ccc(Cl)cc3Cl)C(=O)NC2=O)c2ccccc21`, under “compound concentration: 3 uM”, the cell viability was found to be 102%.

On to `CC(=O)N[C@H]1[C@H]([C@H](O)[C@H](O)CO)OC(C(=O)O)=C[C@@H]1O` [N-Acetyl-2,3-dehydro-2-deoxyneuraminic acid], for which the cell viability (compound concentration: 3 uM) was 115%.

Regarding `Nc1ncnc2c1ncn2[C@@H]1O[C@H](COC(=O)CCC(=O)O)[C@@H](O)[C@H]1O` [Adenosine 5'-succinate], under setting [1], the cell viability came out at 103%. As for `CC(=O)Nc1c(I)c(NC(C)=O)c(I)c(C(=O)O)c1I`, the cell viability (compound concentration: 3 uM) was determined as 110%. For `CCc1cc(C(N)=S)ccn1` [Ethionamide], the cell viability (compound concentration: 3 uM) came out at 78.1%. Take `CCc1cc(C(N)=S)ccn1`: the cell viability (compound concentration: 3 uM) was 110%. Same read-out and setting: the same measure for `Cc1ccc(C(=O)Nc2ccc(S(=O)(=O)O)c3cc(S(=O)(=O)O)cc(S(=O)(=O)O)c23)cc1NC(=O)c1cccc(NC(=O)Nc2cccc(C(=O)Nc3cc(C(=O)Nc4ccc(S(=O)(=O)O)c5cc(S(=O)(=O)O)cc(S(=O)(=O)O)c45)ccc3C)c2)c1`: 102.1 ± 0.69%. Still for that read-out and setting: the same measure for `Cc1ccc(C(=O)Nc2ccc(S(=O)(=O)O)c3cc(S(=O)(=O)O)cc(S(=O)(=O)O)c23)cc1NC(=O)c1cccc(NC(=O)Nc2cccc(C(=O)Nc3cc(C(=O)Nc4ccc(S(=O)(=O)O)c5cc(S(=O)(=O)O)cc(S(=O)(=O)O)c45)ccc3C)c2)c1` [Suramin]: 120%. Consider `Cc1ccc(C(=O)Nc2ccc(S(=O)(=O)O)c3cc(S(=O)(=O)O)cc(S(=O)(=O)O)c23)cc1NC(=O)c1cccc(NC(=O)Nc2cccc(C(=O)Nc3cc(C(=O)Nc4ccc(S(=O)(=O)O)c5cc(S(=O)(=O)O)cc(S(=O)(=O)O)c45)ccc3C)c2)c1` [Suramin sodium salt], for which the cell viability (compound concentration: 3 uM) was 119%. For the compound `CCC(=O)[C@@]1(C)[C@H](C)C[C@H]2[C@@H]3CCC4=CC(=O)C=C[C@]4(C)[C@H]3[C@@H](O)C[C@@]21C` [Rimexolone], the cell viability (compound concentration: 3 uM) turned out to be 96.1%. Still for that read-out and setting: under `CC(=O)Nc1ccc(S(=O)(=O)Nc2ccc([N+](=O)[O-])cc2)cc1` stands 103%; under `CC#CCOC(=O)c1c(C)nc2sc3c(c2c1N)CCC(O)C3` (configuration not stated), 84.3%.

Consider `O=C([O-])CC(O)(CC(=O)[O-])C(=O)[O-].[Fe+3]` [Ferric citrate], for which the cell viability under setting [1] stood at 95.1%. For the compound `CC[C@]12CCCN3CCc4c(n(c5ccccc45)C(=O)C1)[C@@H]32`, where the note is “compound concentration: 3 uM”, the cell viability amounted to 111%. Turning to `CC[C@]12CCCN3CCc4c(n(c5ccccc45)C(=O)C1)[C@@H]32` [Eburnamonine (-)], the cell viability (compound concentration: 3 uM) was 107%.

Consider `CCn1cc(C(=O)O)c(=O)c2cc(F)c(N3CCN(C)CC3)cc21`, for which the cell viability (compound concentration: 3 uM) is 90% and 106%. For `CCn1cc(C(=O)O)c(=O)c2cc(F)c(N3CCN(C)CC3)cc21` [Pefloxacine], the cell viability (compound concentration: 3 uM) is 108 ± 12%. As to `CN=C(N)NCCC[C@H](N)C(=O)O` [L-Ornithine, N5-[imino(methylamino)methyl]-[CAS]], the cell viability (compound concentration: 3 uM) amounted to 101%. With `CCCCCCCCCCC(C)(C)C(=O)Nc1c(OC)cc(OC)cc1OC`, the cell viability (compound concentration: 3 uM) was 111%.

As for `Cn1c(=O)c2[nH]c(-c3ccc(S(=O)(=O)O)cc3)nc2n(C)c1=O` [8-(p-Sulfophenyl)theophylline], the cell viability (compound concentration: 3 uM) worked out at 93.8%. As to `C[C@@H]1O[C@@H]1P(=O)(O)O` [Phosphomycin disodium], the cell viability (compound concentration: 3 uM) amounted to 106%.

Consider `C[C@@H]1O[C@@H]1P(=O)(O)O`, for which the cell viability (compound concentration: 3 uM) amounted to 105%. Consider `C[C@@H]1CN(c2c(F)c(N)c3c(=O)c(C(=O)O)cn(C4CC4)c3c2F)C[C@H](C)N1` [Sparfloxacin], for which, for the setting “compound concentration: 3 uM”, the cell viability was 100 ± 13%. Take `O[C@H]1[C@H](O)[C@@H](O)[C@@H]2O[C@@H]2[C@@H]1O` (racemic) [Conduritol B epoxide]: the cell viability (compound concentration: 3 uM) worked out at 97%. As to `Cc1ccc(S(=O)(=O)NCl)cc1`, the cell viability (compound concentration: 3 uM) was 103%.

Regarding `C[C@]12C=CC(=O)C=C1CC[C@@H]1C2=CC[C@]2(C)[C@@H](C(=O)CN3CCN(c4cc(N5CCCC5)nc(N5CCCC5)n4)CC3)CC[C@@H]12`, for the setting “compound concentration: 3 uM”, the cell viability amounted to 122%.

For `C[C@]12C=CC(=O)C=C1CC[C@@H]1[C@@H]2C(=O)C[C@@]2(C)[C@H]1CC[C@]2(O)C(=O)CO` [Prednisone], the cell viability (compound concentration: 3 uM) was 104 ± 4.9%. For the compound `C[C@]12C=CC(=O)C=C1CC[C@@H]1[C@@H]2C(=O)C[C@@]2(C)[C@H]1CC[C@]2(O)C(=O)CO`, the cell viability (compound concentration: 3 uM) stood at 102%. The same measure, in the same setting: under `Nc1ncnc2nc(-c3ccc(N4CCOCC4)nc3)cc(-c3cccc(Br)c3)c12` [ABT-702 dihydrochloride] stands 102%. `CCOC(=O)CCC(=O)O[C@H]1[C@H](O[C@@H]2[C@@H](C)[C@H](O[C@H]3C[C@@](C)(OC)[C@@H](O)[C@H](C)O3)[C@@H](C)C(=O)O[C@H](CC)[C@@](C)(O)[C@H](O)[C@@H](C)C(=O)[C@H](C)C[C@@]2(C)O)O[C@H](C)C[C@@H]1N(C)C` [erythromycin ethylsuccinate]: the cell viability under setting [1] stood at 105%. With `CCOC(=O)CCC(=O)O[C@H]1[C@H](O[C@@H]2[C@@H](C)[C@H](O[C@H]3C[C@@](C)(OC)[C@@H](O)[C@H](C)O3)[C@@H](C)C(=O)O[C@H](CC)[C@@](C)(O)[C@H](O)[C@@H](C)C(=O)[C@H](C)C[C@@]2(C)O)O[C@H](C)C[C@@H]1N(C)C`, for the setting “compound concentration: 3 uM”, the cell viability came to 107%.
